In the supplement of paper PMC10849652 one finds log2 fold change data, which are given here for 39 targets.

The chains behind the UniProt entries cited, without tags or fusion partners. Where a name states a change or a piece, a line headed by the entry shows the natural chain unless it says otherwise.
UniProt P52594: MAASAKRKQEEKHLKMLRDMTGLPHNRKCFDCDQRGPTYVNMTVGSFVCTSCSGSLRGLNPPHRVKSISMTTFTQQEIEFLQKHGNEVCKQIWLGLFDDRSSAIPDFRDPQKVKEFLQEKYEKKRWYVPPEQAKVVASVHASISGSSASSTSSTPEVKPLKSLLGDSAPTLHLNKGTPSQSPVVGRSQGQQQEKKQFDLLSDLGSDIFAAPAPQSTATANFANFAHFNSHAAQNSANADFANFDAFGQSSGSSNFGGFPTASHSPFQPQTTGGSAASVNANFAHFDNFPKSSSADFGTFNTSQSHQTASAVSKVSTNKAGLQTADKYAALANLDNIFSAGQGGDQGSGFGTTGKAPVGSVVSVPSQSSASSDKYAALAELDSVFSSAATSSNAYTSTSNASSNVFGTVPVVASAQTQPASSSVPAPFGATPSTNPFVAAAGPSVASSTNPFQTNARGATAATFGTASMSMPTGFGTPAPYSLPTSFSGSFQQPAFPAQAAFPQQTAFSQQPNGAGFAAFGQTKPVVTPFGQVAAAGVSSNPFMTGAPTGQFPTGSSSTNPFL
UniProt Q96BJ3: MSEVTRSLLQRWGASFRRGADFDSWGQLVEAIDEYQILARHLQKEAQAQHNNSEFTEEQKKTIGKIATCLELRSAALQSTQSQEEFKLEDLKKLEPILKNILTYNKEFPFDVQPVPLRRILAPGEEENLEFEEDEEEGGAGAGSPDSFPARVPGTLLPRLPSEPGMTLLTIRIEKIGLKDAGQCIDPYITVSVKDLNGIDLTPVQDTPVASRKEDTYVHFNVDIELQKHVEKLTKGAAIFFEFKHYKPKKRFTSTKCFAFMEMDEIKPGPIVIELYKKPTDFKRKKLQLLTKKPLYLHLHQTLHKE
UniProt P31749: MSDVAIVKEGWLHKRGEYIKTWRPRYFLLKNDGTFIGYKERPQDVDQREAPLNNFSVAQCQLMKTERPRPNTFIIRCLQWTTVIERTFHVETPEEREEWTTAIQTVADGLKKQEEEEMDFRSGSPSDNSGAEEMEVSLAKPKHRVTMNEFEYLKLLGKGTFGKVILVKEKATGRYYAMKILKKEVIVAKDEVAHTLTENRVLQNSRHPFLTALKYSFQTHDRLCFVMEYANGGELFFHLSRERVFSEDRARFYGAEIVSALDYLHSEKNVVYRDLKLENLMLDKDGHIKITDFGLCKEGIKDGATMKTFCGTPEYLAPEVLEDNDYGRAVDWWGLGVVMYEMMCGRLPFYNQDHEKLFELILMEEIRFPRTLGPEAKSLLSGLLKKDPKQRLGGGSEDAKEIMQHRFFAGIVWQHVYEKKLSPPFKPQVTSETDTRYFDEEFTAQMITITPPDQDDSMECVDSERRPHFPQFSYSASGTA
UniProt Q9NYG5, whole entry, looked up: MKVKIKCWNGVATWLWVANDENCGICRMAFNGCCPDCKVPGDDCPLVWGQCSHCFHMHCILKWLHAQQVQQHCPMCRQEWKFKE
UniProt Q9UEY8: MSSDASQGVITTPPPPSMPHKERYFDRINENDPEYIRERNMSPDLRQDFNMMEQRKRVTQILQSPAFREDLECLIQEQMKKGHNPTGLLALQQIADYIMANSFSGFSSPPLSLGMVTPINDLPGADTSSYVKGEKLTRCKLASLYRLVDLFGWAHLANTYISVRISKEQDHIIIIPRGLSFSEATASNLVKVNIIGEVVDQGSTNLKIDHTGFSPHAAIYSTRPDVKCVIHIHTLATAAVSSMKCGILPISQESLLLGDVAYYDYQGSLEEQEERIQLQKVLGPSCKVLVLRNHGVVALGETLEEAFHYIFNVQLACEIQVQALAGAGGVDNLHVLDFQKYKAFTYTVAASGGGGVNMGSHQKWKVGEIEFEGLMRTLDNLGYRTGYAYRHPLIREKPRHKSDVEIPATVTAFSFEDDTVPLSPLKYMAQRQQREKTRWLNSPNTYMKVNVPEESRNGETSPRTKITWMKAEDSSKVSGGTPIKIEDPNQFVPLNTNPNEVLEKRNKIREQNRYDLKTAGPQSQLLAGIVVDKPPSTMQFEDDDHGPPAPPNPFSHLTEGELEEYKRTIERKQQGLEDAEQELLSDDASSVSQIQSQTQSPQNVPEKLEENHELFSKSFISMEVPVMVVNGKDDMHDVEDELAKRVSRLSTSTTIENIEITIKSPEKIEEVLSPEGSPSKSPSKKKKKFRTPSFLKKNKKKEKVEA
UniProt Q9Y673: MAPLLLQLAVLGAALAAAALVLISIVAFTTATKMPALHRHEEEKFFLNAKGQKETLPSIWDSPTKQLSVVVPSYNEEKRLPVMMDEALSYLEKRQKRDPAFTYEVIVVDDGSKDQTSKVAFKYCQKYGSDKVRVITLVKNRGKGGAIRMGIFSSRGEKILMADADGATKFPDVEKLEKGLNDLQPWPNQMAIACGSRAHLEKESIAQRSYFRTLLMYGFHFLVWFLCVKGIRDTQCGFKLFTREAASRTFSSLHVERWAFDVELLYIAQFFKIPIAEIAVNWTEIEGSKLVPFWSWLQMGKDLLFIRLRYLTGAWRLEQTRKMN
UniProt P00352: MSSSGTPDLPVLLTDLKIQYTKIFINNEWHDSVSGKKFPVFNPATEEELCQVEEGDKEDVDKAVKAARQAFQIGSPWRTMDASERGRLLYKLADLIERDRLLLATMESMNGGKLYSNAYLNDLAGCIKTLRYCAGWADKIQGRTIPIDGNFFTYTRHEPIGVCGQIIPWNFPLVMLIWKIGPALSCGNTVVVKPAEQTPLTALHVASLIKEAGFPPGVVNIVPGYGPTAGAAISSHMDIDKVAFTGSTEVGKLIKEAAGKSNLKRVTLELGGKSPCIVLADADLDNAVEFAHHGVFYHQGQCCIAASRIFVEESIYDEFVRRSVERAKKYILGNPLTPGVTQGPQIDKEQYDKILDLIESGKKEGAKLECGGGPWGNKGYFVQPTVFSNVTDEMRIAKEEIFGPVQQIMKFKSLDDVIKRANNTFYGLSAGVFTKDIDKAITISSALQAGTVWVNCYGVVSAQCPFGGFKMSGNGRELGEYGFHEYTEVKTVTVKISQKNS
UniProt Q53H12: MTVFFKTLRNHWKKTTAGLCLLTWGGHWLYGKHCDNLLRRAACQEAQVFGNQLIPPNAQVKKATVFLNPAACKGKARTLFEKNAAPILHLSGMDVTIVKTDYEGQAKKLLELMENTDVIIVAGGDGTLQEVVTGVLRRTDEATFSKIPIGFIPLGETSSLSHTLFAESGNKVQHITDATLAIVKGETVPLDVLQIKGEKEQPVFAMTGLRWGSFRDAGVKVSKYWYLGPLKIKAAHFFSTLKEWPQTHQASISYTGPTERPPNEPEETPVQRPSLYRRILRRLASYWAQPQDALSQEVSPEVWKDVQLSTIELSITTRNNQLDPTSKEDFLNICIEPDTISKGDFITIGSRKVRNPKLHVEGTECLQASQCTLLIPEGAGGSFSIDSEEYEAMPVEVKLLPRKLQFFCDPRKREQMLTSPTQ
UniProt Q6NS38: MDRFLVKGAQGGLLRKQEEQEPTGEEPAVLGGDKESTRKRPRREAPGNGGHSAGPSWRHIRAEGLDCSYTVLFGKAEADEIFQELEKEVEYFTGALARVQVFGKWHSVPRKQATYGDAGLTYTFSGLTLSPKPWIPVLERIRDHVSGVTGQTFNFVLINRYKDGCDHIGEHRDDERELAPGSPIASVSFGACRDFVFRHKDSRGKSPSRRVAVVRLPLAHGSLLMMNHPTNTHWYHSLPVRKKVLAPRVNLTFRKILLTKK
UniProt Q5I7T1: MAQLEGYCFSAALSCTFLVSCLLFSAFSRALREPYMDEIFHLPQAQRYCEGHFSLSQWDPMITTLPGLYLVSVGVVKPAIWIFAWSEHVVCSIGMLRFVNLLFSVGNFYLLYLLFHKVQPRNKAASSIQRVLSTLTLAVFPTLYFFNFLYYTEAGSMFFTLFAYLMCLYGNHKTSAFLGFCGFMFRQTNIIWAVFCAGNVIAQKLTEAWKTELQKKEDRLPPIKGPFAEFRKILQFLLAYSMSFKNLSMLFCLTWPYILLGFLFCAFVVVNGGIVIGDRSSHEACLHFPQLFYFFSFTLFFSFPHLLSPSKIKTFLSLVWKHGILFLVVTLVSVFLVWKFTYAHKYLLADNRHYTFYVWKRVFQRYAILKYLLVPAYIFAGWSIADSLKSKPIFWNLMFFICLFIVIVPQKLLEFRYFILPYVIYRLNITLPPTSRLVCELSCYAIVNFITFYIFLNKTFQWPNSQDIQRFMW
UniProt O95831, whole entry, looked up: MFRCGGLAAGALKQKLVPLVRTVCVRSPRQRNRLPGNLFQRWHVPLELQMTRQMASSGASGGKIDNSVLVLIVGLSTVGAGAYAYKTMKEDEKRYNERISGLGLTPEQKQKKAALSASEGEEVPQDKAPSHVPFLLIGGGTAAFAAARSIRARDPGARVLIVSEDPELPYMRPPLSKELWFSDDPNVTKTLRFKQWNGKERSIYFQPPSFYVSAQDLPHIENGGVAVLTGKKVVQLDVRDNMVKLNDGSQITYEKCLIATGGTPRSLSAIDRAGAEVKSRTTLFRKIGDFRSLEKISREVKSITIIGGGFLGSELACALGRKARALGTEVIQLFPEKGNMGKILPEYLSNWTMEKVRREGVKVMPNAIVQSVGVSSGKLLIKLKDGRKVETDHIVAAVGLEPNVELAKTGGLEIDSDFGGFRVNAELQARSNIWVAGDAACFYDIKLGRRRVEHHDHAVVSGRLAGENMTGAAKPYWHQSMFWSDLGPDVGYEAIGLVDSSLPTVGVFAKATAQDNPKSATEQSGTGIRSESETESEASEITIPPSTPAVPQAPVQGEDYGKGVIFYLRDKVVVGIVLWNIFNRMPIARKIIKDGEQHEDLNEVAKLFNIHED
UniProt Q9NXW9: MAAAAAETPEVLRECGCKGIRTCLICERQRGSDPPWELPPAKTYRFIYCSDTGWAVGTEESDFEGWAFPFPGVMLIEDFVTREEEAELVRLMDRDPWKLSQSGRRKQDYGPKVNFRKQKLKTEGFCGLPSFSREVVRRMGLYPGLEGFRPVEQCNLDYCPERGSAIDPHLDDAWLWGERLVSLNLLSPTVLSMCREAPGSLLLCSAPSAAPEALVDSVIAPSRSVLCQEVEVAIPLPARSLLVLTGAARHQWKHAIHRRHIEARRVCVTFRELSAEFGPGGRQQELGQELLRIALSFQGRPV
UniProt O94788: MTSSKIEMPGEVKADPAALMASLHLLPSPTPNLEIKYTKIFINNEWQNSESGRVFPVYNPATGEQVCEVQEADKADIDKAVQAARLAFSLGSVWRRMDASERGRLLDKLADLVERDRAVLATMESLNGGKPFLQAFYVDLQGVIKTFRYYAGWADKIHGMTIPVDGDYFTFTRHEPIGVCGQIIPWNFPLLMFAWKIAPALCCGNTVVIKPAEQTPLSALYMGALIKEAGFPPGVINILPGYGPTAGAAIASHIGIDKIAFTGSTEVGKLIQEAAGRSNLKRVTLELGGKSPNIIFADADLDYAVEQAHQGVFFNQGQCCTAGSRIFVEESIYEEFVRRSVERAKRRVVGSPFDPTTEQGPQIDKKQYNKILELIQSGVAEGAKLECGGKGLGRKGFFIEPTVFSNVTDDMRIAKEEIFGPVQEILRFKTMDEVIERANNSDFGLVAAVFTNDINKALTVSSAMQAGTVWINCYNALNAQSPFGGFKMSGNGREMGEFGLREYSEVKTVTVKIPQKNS
UniProt P30837: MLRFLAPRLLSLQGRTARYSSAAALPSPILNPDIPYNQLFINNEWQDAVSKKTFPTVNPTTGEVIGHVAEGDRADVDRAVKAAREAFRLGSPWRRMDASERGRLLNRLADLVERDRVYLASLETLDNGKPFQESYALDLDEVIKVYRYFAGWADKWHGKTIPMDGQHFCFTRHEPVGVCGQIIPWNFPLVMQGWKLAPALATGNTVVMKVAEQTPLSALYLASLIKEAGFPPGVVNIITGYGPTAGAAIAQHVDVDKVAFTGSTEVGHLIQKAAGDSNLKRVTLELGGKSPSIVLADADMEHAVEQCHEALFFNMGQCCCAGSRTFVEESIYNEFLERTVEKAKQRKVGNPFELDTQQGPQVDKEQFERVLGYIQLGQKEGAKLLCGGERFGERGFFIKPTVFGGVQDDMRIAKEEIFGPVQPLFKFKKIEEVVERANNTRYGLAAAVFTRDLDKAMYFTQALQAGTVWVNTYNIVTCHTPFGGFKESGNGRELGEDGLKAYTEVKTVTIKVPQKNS
UniProt P51857: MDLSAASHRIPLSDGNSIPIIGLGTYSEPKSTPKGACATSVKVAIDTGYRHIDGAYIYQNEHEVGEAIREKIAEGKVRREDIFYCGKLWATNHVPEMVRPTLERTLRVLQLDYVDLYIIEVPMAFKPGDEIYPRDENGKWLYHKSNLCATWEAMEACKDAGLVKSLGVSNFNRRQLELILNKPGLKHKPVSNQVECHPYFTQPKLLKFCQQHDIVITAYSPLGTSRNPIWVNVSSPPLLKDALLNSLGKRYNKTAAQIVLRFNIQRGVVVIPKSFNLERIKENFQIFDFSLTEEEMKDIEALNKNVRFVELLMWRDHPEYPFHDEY

The list shows a part of the results.

Compound in the test: c1ccc([C@@H]2C[C@H]2NC2CCNCC2)cc1
Nature of the test: log2 fold change, soluble protein after heating vs DMSO (PISA); higher = thermal stabilisation; K562 cells, 10 uM, 30 min; active = over 0.2 and 3.5 SD of the protein, either way, in both replicates (recomputed). The essentials:
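K562 cells at 2×10^6 cells/mL were treated with 10 μM compound for 30 min. Aliquots were heated for 3 min across 48°C-58°C, pooled, and extracted in PBS with 0.5% NP-40 at 4°C; soluble protein was the supernatant after 21,000xg for 90 min. Soluble protein was quantified by TMTpro 16plex LC-MS/MS with channel sums equalised, and reported as log2 fold change in thermal stability against DMSO controls, with values from duplicates.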
Turning to AGFG1 isoform 4 (UniProt P52594), the log2 fold change was inactive: -0.017. The value for AGO3 (UniProt Q9H9G7) was inactive: 0.019; that for AIDA (UniProt Q96BJ3) was inactive: -0.022. With AKAP8L (UniProt Q9ULX6) the figure was inactive: 0.043; with AHCY (UniProt P23526), inactive: -0.011.

Turning to AMFR (UniProt Q9UKV5), the log2 fold change was inactive: -0.046. The value for ALDH5A1 isoform 2 (UniProt P51649) was inactive: -0.009; that for AHNAK (UniProt Q09666) was inactive: 0.057; that for AIP (UniProt O00170) was inactive: -0.018. On to AKT1 (UniProt P31749), for which the log2 fold change was inactive: -0.072.

For AKR1B1 (UniProt P15121), the log2 fold change was inactive: 0.005. With AGPAT1 (UniProt Q99943) the figure was inactive: 0.023; with AMBRA1 isoform 5 (UniProt Q9C0C7), inactive: 0.085; with ANAPC11 (UniProt Q9NYG5), inactive: 0.071. Take ADD3 (UniProt Q9UEY8): the log2 fold change is inactive: 0.029.

Turning to AHCYL2 (UniProt Q96HN2), the log2 fold change was inactive: -0.026. The value for ALG5 (UniProt Q9Y673) was inactive: -0.056; that for ALDH9A1 (UniProt P49189) was inactive: 0.156; that for ALG8 (UniProt Q9BVK2) was inactive: -0.053. With ALDH4A1 (UniProt P30038) the figure was inactive: -0.066; with AGO4 (UniProt Q9HCK5), inactive: -0.042; with AMPD2 (UniProt Q01433), inactive: 0.011. With ALDH1A1 (UniProt P00352) the figure was inactive: -0.011. As for AGK (UniProt Q53H12), the log2 fold change is inactive: -0.002. The value for ALKBH2 (UniProt Q6NS38) was inactive: 0.082; that for ALG10B (UniProt Q5I7T1) was inactive: 0.017; that for AKT2 (UniProt P31751) was inactive: -0.028. As to ADD2 (UniProt P35612), the log2 fold change is inactive: 0.016. With AKAP12 (UniProt Q02952) the figure was inactive: 0.021; with AKR1C2 (UniProt P52895), inactive: -0.011. ALG11 (UniProt Q2TAA5): the log2 fold change was inactive: -0.021.

For AIFM1 (UniProt O95831), the log2 fold change was inactive: 0.007. As to ALKBH4 (UniProt Q9NXW9), the log2 fold change was inactive: -0.033. Take ALDH1A2 (UniProt O94788): the log2 fold change was inactive: 0. With AKAP1 (UniProt Q92667), the log2 fold change was inactive: 0.003. With ADSS1 (UniProt Q8N142) the figure was inactive: -0.036; with AK3 (UniProt Q9UIJ7), inactive: 0.009; with ALDH1B1 (UniProt P30837), inactive: 0.009. Regarding AKR1D1 (UniProt P51857), the log2 fold change is inactive: -0.045.
